Laboratory results as given in patent publication US11850286B2, “Sulfamide linker, conjugates thereof, and methods of preparation” (priority 2014, dated 2023).

Tests used:
trastuzumab(N300C) = experiment: Competition conjugation of 17 vs 18 to trastuzumab(N300C); conditions: 6 eq. each of 17 and 18, 1 hour at room temperature, MS-analysis
[1] = test system: trastuzumab-N3 (compound 13b); experiment: Conjugation of linker-conjugates to trastuzumab-N3, conversion by MS; conditions: trastuzumab-N3 (13b), rt, Tris buffer pH 7.5
[2] = test system: trastuzumab-F2-GalNAz (compound 13c); experiment: Conjugation of linker-conjugates to trastuzumab-F2-GalNAz, conversion by MS; conditions: trastuzumab-F2-GalNAz (13c) per FIG. 13b/14b

Compound	Fc-fragment conjugated to maleimide (trastuzumab(N300C))	Conversion (%) ([1]; 30′)	Conversion (%) ([1]; 60′)	Conversion (%) ([1]; 240′)	Conversion (%) ([1]; 120′)	Conversion (%) ([1]; 90′)	Conversion (%) ([1]; 960′)	Conversion (%) ([2]; 30′)	Conversion (%) ([2]; 60′)	Conversion (%) ([2]; 120′)	Conversion (%) ([2]; 240′)	Conversion (%) ([2]; 3600′)
O=C(NS(=O)(=O)NCc1ccc2ccc3cccc4ccc1c2c34)OCCCCCN1C(=O)C=CC1=O [Compound 18, Maleimide-Pyrene Derivative]	Approximately 45%	–	–	–	–	–	–	–	–	–	–	–
O=C(CCCCCCNC(=O)OCC1C2CCC#CCCC21)NCc1ccccc1 (centres unmarked) [Compound 19, BCN-Heptanoic Acid Benzylamide]	–	0	0	10	–	–	–	–	–	–	–	–
O=C(CCCCCCNC(=O)OCC1C2CCC#CCCC21)NS(=O)(=O)NCc1ccccc1 (centres unmarked) [Compound 20]	–	80	90	>95	95	–	–	–	–	–	–	–
O=C(NCCCCCOC(=O)NS(=O)(=O)NCc1ccccc1)OCC1C2CCC#CCCC21 (centres unmarked) [Compound 21]	–	–	60	90	–	–	–	–	–	–	–	–
CN(C(=O)OCCCCCNC(=O)OCC1C2CCC#CCCC21)S(=O)(=O)NCc1ccccc1 (centres unmarked) [Compound 22]	–	0	5	30	10	–	–	–	–	–	–	–
O=C(CCOCCOCCOCCOCCNC(=O)OCC1C2CCC#CCCC21)NCc1ccc2ccc3cccc4ccc1c2c34 (centres unmarked) [Compound 24, BCN-dPEG4-Pyrene]	–	0	10	–	30	20	80	–	–	–	–	–
O=C(CCOCCOCCOCCOCCOCCOCCOCCOCCNC(=O)OCC1C2CCC#CCCC21)NCc1ccc2ccc3cccc4ccc1c2c34 (centres unmarked) [Compound 25, BCN-PEG8-pyrene]	–	20	20	–	60	30	80	–	–	–	–	–
O=C(NCc1ccc2ccc3cccc4ccc1c2c34)OCCOCCNS(=O)(=O)NC(=O)OCC1C2CCC#CCCC21 (centres unmarked) [Compound 26, BCN-sulfamide-pyrene]	–	70	80	–	95	85	100	–	–	–	–	–
O=C(CCOCCOCCOCCOCCNC(=O)c1ccc2ccc3cccc4ccc1c2c34)NCCC(=O)N1Cc2ccccc2C#Cc2ccccc21 [Compound 27, DIBAC-PEG4-pyrene]	–	20	25	–	30	30	30	–	–	–	–	–
O=C(CCOCCOCCOCCOCCOCCOCCOCCOCCNC(=O)c1ccc2ccc3cccc4ccc1c2c34)NCCC(=O)N1Cc2ccccc2C#Cc2ccccc21 [Compound 28, DIBAC-PEG8-pyrene]	–	30	40	–	65	60	65	–	–	–	–	–
COc1cc2cc(c1Cl)N(C)C(=O)C[C@H](OC(=O)[C@H](C)N(C)C(=O)CCCCCNC(=O)CCOCCOCCOCCOCCNC(=O)OCC1C3CCC#CCCC31)[C@]1(C)O[C@H]1[C@H](C)[C@@H]1C[C@@](O)(NC(=O)O1)[C@H](OC)/C=C/C=C(\C)C2 (some centres unmarked) [Compound 30]	–	75	>90	–	>95	–	>95	25	40	65	95	95
COc1cc2cc(c1Cl)N(C)C(=O)C[C@H](OC(=O)[C@H](C)N(C)C(=O)CCCCCNC(=O)CCOCCOCCOCCOCCOCCOCCOCCOCCOCCOCCOCCOCCNC(=O)OCC1C3CCC#CCCC31)[C@]1(C)O[C@H]1[C@H](C)[C@@H]1C[C@@](O)(NC(=O)O1)[C@H](OC)/C=C/C=C(\C)C2 (some centres unmarked) [Compound 31]	–	25	45	–	60	–	95	5	10	15	50	50
COc1cc2cc(c1Cl)N(C)C(=O)C[C@H](OC(=O)[C@H](C)N(C)C(=O)CCCCCNC(=O)CCOCCOCCOCCOCCOCCOCCOCCOCCOCCOCCOCCOCCOCCOCCOCCOCCOCCOCCOCCOCCOCCOCCOCCOCCNC(=O)OCC1C3CCC#CCCC31)[C@]1(C)O[C@H]1[C@H](C)[C@@H]1C[C@@](O)(NC(=O)O1)[C@H](OC)/C=C/C=C(\C)C2 (some centres unmarked) [Compound 32]	–	20	35	–	70	–	85	<5	5	10	80	80
DIBAC-sulfamide-pyrene [Compound 29]	–	60	70	–	85	80	90	–	–	–	–	–
